Construct, isoform or probe ends are uncertain for at least one entry.
Tested on: MBP-RstA-P (acetyl phosphate treated) (Pseudomonas fluorescens 2P24)
Experiment: EMSA
Details: EMSA: 50 mM Tris-HCl pH 7.5, 10 mM MgCl2, 10% glycerol, 0.5 mM EDTA, 50 mM KCl, 3 uM BSA, 50 ng DNA in 20 ul, 30 min room temperature, 6% native PAGE, recombinant protein, residues 1-233, protein details: N-terminal MBP (pMAL-c2X), label: FAM, probe letters rebuilt from the primers and the genome

CGGCCTGTGTGATTACACAATTTCACAGAGCGCCTACAAAGCTTCACCCCTGTCATGGGCCTGGATCCCTACCATGAGCGGCTCAATATTGGGGAAGCACC (double strand) [FAM-mexC promoter]
binding result (two shifted bands): binds

GGCAATAAACACCTCAATCAGGATGCGTCAGCAATGCGTAAGCATCAGCTGAACAAAATATGAGGCGACGTCTCTTGAAACGCGTCTCCGATCTATACAGGCCTTTGTCAGGCTTTTGTAAATCCGGATATTACGCAATTTGGCTGTTTACAAACAACCGTGTACGTAAGTATATTTCTTAGCATCCTACTAATTGAAAAAATGCTCCTTTTTTACCCTTCCACCTTTCGAGTGCGCCAGTTACGCGCCTGGACCCGAGGATTT (double strand) [FAM-emhA promoter]
binding result (concentration dependent): binds

Source: paper PMC8562477
